The test deals with ARTD2 catalytic fragment (human) (UniProt Q9UGN5). In words: SAXS; proteins without DNA; measured without chromatography at three different concentrations; MW from Porod volume divided by 1.7; both purified.

The chains behind the UniProt entries cited, without tags or fusion partners. Where a name states a change or a piece, a line headed by the entry shows the natural chain unless it says otherwise. Residues count along the entry.
UniProt Q9UGN5, residues 235-579: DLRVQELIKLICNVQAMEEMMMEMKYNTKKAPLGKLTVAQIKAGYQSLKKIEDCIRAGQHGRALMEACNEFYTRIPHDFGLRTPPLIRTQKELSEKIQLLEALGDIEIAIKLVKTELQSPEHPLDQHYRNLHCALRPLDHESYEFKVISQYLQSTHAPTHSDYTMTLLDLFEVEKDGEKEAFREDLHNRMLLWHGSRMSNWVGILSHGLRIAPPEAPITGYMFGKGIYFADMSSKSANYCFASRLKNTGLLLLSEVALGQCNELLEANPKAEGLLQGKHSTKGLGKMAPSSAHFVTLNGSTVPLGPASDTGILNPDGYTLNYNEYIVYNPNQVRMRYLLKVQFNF

No constants are given. Whether binding was seen depends on the method and setting.

In the case of “ARTD2 catalytic fragment (from UniProt Q9UGN5-1 235-579) (domain or fragment)”, the binding entry was “no binding”.

For the origin of these results see paper PMC5052650.
